The list is a part of this screen's results and no random one: it gathers tests that were run many times, whatever their T/C, doses with no T/C, and many T/C values between a quarter and a half above the control. Further doses and runs are listed elsewhere. T/C: endpoint of the treated group in % of that of the vehicle group. Some entries give survivors of the animals treated and no T/C: the source files T/C as zero there, which appears to mark a toxic dose or a test without result, not a measured value. Some survivor counts are full or nearly so, which does not show that the dose was tolerated: survival well below the control is almost never listed, so the zero probably covers shortened survival too. Counts of survivors are from the toxicity check (mostly the fifth day) where no day follows; animals may have died later. Schedules are NCI's codes, taken here to give the interval after Q, in days (D) or hours (H), and the number of doses after X. Some doses were run more than once; the values are given in rising order. For survival time, the PubChem record calls one and a half times the control and up active, and a quarter to a half above the control has no call in these data; cut-offs in other NCI protocols can differ. Some T/C values carry the count of animals alive at the toxicity check (mostly the fifth day); where none is given, no animal had died by that day.
Test system: CD2F1 mice, L1210 leukemia ip, survival T/C
Test: NCI In Vivo Anticancer Drug Screen. Data for tumor model L1210 Leukemia (intraperitoneal) in CD2F1 (CDF1) mice
Settings: higher T/C = longer survival
Experimental: The antitumor activity of compounds was measured in mice bearing transplantable tumors. Survival or tumor size were measured and the results are expressed as the measurement made in the treated group (T) divided by the measurement made in the vehicle treated control group (C). The tumor model used in this assay is L1210 Leukemia (intraperitoneal) in CD2F1 (CDF1) mice

[1] = T/C endpoint: mean survival time, dose: 400.0 mg/kg/injection, schedule: Q01DX001 (ip), vehicle: saline with Tween-80
[2] = T/C endpoint: mean survival time, dose: 50.0 mg/kg/injection, schedule: Q01DX009 (ip), vehicle: saline with Tween-80
[3] = T/C endpoint: mean survival time, dose: 200.0 mg/kg/injection, schedule: Q04DX002 (ip), vehicle: saline with Tween-80
[4] = T/C endpoint: mean survival time, dose: 400.0 mg/kg/injection, schedule: Q04DX002 (ip), vehicle: saline with Tween-80
[5] = T/C endpoint: mean survival time, dose: 100.0 mg/kg/injection, schedule: Q04DX003 (ip), vehicle: saline with Tween-80
[6] = T/C endpoint: mean survival time, dose: 200.0 mg/kg/injection, schedule: Q04DX003 (ip), vehicle: saline with Tween-80
[7] = T/C endpoint: mean survival time, dose: 400.0 mg/kg/injection, schedule: Q04DX003 (ip), vehicle: saline with Tween-80
[8] = T/C endpoint: mean survival time, dose: 100.0 mg/kg/injection, schedule: Q01DX009 (ip), vehicle: saline with Tween-80
[9] = T/C endpoint: mean survival time, dose: 400.0 mg/kg/injection, schedule: Q01DX009 (ip), vehicle: saline with Tween-80
[10] = T/C endpoint: mean survival time, dose: 400.0 mg/kg/injection, schedule: Q04DX003 (ip), vehicle: saline
[11] = T/C endpoint: mean survival time, dose: 200.0 mg/kg/injection, schedule: Q01DX001 (ip), vehicle: saline

Nc1ncc(C=O)c(N)n1
survivor count (T/C endpoint: mean survival time, dose: 50.0 mg/kg/injection, schedule: Q01DX009 (ip), vehicle: Klucel (hydroxypropylcellulose) (HPC)): 3 of 3 | survivor count (T/C endpoint: mean survival time, dose: 100.0 mg/kg/injection, schedule: Q01DX009 (ip), vehicle: Klucel (hydroxypropylcellulose) (HPC)): 1 of 3 | survivor count (T/C endpoint: mean survival time, dose: 200.0 mg/kg/injection, schedule: Q01DX009 (ip), vehicle: Klucel (hydroxypropylcellulose) (HPC)): 1 of 3

CS(=O)(=O)OCCCN(CCCOS(C)(=O)=O)CCCN1CCOCC1
T/C (T/C endpoint: mean survival time, dose: 10.0 mg/kg/injection, schedule: Q01DX001 (ip), vehicle: saline): 135 % of control | T/C (T/C endpoint: mean survival time, dose: 10.0 mg/kg/injection, schedule: Q01DX005 (ip), vehicle: saline): 129 % of control | T/C (T/C endpoint: mean survival time, dose: 10.0 mg/kg/injection, schedule: Q02DX003 (ip), vehicle: saline): 142 % of control | T/C (T/C endpoint: mean survival time, dose: 10.0 mg/kg/injection, schedule: Q04DX003 (ip), vehicle: saline): 144 % of control | T/C (T/C endpoint: mean survival time, dose: 25.0 mg/kg/injection, schedule: Q01DX001 (ip), vehicle: saline): 126 % of control | T/C (T/C endpoint: mean survival time, dose: 25.0 mg/kg/injection, schedule: Q01DX009 (ip), vehicle: saline): 135 % of control | T/C (T/C endpoint: mean survival time, dose: 25.0 mg/kg/injection, schedule: Q04DX003 (ip), vehicle: saline): 137 % of control | T/C (T/C endpoint: mean survival time, dose: 40.0 mg/kg/injection, schedule: Q04DX003 (ip), vehicle: saline): 140 % of control | T/C (T/C endpoint: mean survival time, dose: 50.0 mg/kg/injection, schedule: Q01DX001 (ip), vehicle: saline): 144 % of control | T/C (T/C endpoint: mean survival time, dose: 125.0 mg/kg/injection, schedule: Q01DX009 (ip), vehicle: saline): 144 % of control

O=C1C=CC(=O)C1
survivor count (T/C endpoint: mean survival time, dose: 10.0 mg/kg/injection, schedule: Q04DX002 (ip), vehicle: saline with Tween-80): 3 of 3 | survivor count (T/C endpoint: mean survival time, dose: 20.0 mg/kg/injection, schedule: Q04DX002 (ip), vehicle: saline with Tween-80): 1 of 3

CC(=O)/C(=C\c1ccccc1)CNC1CCCCC1
survivor count (T/C endpoint: mean survival time, dose: 25.0 mg/kg/injection, schedule: Q01DX001 (ip), vehicle: saline with Tween-80): 0 of 3 | survivor count (T/C endpoint: mean survival time, dose: 100.0 mg/kg/injection, schedule: Q01DX001 (ip), vehicle: saline with Tween-80): 0 of 3 | survivor count (T/C endpoint: mean survival time, dose: 200.0 mg/kg/injection, schedule: Q01DX001 (ip), vehicle: saline with Tween-80): 0 of 3 | survivor count [1]: 0 of 3

O=C(O)C[N-]CC[N-]CC(=O)O.[Cl][Pt+2][Cl]
survivor count (T/C endpoint: mean survival time, dose: 100.0 mg/kg/injection, schedule: Q04DX003 (ip), vehicle: other): 8 of 10

O=[N+]([O-])c1cccc(/C=C/C2(CCl)OCCO2)c1
survivor count [1]: 0 of 6

COC(=O)C(CSC(c1ccccc1)(c1ccccc1)c1ccccc1)NC(=O)C(CC(N)=O)NC(=O)OCc1ccccc1 (centres undefined)
T/C (T/C endpoint: median survival time, dose: 100.0 mg/kg/injection, schedule: Q01DX009 (ip), vehicle: distilled water + Tween-80): 135 % of control | T/C (T/C endpoint: median survival time, dose: 200.0 mg/kg/injection, schedule: Q01DX009 (ip), vehicle: distilled water + Tween-80): 131 % of control [9 of 10 alive] | survivor count (T/C endpoint: median survival time, dose: 800.0 mg/kg/injection, schedule: Q01DX009 (ip), vehicle: distilled water + Tween-80): 1 of 10

COC(=O)NC(N)=Nc1ccccc1
survivor count [2]: 3 of 3

CCOP(=O)(OCC)Oc1c(Cl)c(Cl)c(OC(=O)Nc2cc(Cl)ccc2Cl)c(Cl)c1Cl
survivor count (T/C endpoint: mean survival time, dose: 100.0 mg/kg/injection, schedule: Q04DX002 (ip), vehicle: saline with Tween-80): 3 of 3 | survivor count [3]: 3 of 3 | survivor count [4]: 3 of 3

Nc1ncnc(N)c1NC(=O)c1cccc(Br)c1
survivor count [5]: 2 of 6 | survivor count [6]: 0 of 6 | survivor count [7]: 1 of 6

Nc1nc2nc(CBr)c(CBr)nc2c(=O)[nH]1
survivor count [8]: 3 of 6 | survivor count [9]: 3 of 6

CCOP(=O)(OCC)C1=C(P(=O)(OCC)OCC)CCCC1
survivor count (T/C endpoint: mean survival time, dose: 75.0 mg/kg/injection, schedule: Q01DX001 (ip), vehicle: other): 2 of 6 | survivor count (T/C endpoint: mean survival time, dose: 150.0 mg/kg/injection, schedule: Q01DX001 (ip), vehicle: other): 0 of 6 | survivor count (T/C endpoint: mean survival time, dose: 300.0 mg/kg/injection, schedule: Q01DX001 (ip), vehicle: other): 0 of 6

CC1(C)N=C(N)N=C(N)N1c1ccc(CCc2ccccc2)cc1
survivor count [2]: 3 of 6 | survivor count [5]: 5 of 6 | survivor count [6]: 0 of 6 | survivor count [7]: 0 of 6

C=CCNC(N)=O
survivor count [10]: 1 of 6

CC(C)CCNc1ncnc2c1cnn2C
survivor count (T/C endpoint: mean survival time, dose: 200.0 mg/kg/injection, schedule: Q04DX003 (ip), vehicle: saline): 2 of 6 | survivor count [10]: 0 of 6

CN(C)c1ccc(C(=O)CCN2CC=C(c3ccccc3)CC2)cc1
survivor count [3]: 0 of 3 | survivor count [4]: 0 of 3

CCN(CC)CCC(=O)c1ccc2ccc3ccccc3c2c1
survivor count [11]: 1 of 6

Nc1nnc[se]1
T/C (T/C endpoint: mean survival time, dose: 25.0 mg/kg/injection, schedule: Q01DX009 (ip), vehicle: saline with Tween-80): 125 and 135 % of control | T/C [2]: 144 % of control | survivor count [8]: 6 of 6 | T/C (T/C endpoint: median survival time, dose: 50.0 mg/kg/injection, schedule: Q01DX009 (ip), vehicle: saline with Tween-80): 134 % of control | T/C (T/C endpoint: median survival time, dose: 100.0 mg/kg/injection, schedule: Q01DX009 (ip), vehicle: saline with Tween-80): 125 % of control

O=P(Oc1ccccc1)(Oc1ccccc1)N(CCCl)CCCl
T/C (T/C endpoint: mean survival time, dose: 50.0 mg/kg/injection, schedule: Q01DX009 (ip), vehicle: water): 125 % of control | T/C (T/C endpoint: mean survival time, dose: 100.0 mg/kg/injection, schedule: Q01DX009 (ip), vehicle: water): 146 % of control [5 of 6 alive] | survivor count (T/C endpoint: mean survival time, dose: 400.0 mg/kg/injection, schedule: Q01DX009 (ip), vehicle: water): 0 of 6 and 1 of 6 | survivor count (T/C endpoint: mean survival time, dose: 500.0 mg/kg/injection, schedule: Q01DX001 (ip), vehicle: distilled water + Tween-80): 3 of 6 | survivor count (T/C endpoint: mean survival time, dose: 750.0 mg/kg/injection, schedule: Q01DX001 (ip), vehicle: distilled water + Tween-80): 0 of 6

COP12(OCCO1)SC(C(F)(F)F)=C(C(F)(F)F)S2
survivor count [2]: 0 of 10 | survivor count [8]: 0 of 10 and 0 of 6 | survivor count (T/C endpoint: mean survival time, dose: 200.0 mg/kg/injection, schedule: Q01DX009 (ip), vehicle: saline with Tween-80): 0 of 10 and 0 of 6 | survivor count [9]: 0 of 10 and 0 of 6

COC12C(COC(=O)NCCO)C3=C(C(=O)C(C)=C(N)C3=O)N1CC1NC12 (centres undefined)
T/C (T/C endpoint: mean survival time, dose: 12.5 mg/kg/injection, schedule: Q01DX009 (ip), vehicle: Klucel (hydroxypropylcellulose) (HPC)): 127 % of control [5 of 6 alive] | T/C (T/C endpoint: mean survival time, dose: 25.0 mg/kg/injection, schedule: Q01DX009 (ip), vehicle: Klucel (hydroxypropylcellulose) (HPC)): 128 and 130 % of control | T/C (T/C endpoint: mean survival time, dose: 49.0 mg/kg/injection, schedule: Q01DX001 (ip), vehicle: carboxymethylcellulose (CMC)): 127 % of control | T/C (T/C endpoint: mean survival time, dose: 74.0 mg/kg/injection, schedule: Q01DX001 (ip), vehicle: carboxymethylcellulose (CMC)): 129 and 146 % of control | T/C (T/C endpoint: mean survival time, dose: 119.0 mg/kg/injection, schedule: Q01DX001 (ip), vehicle: carboxymethylcellulose (CMC)): 135 % of control | T/C (T/C endpoint: mean survival time, dose: 148.0 mg/kg/injection, schedule: Q01DX001 (ip), vehicle: carboxymethylcellulose (CMC)): 129 [4 of 5 alive] and 148 % of control

OCC1=CCN(CCc2c[nH]c3ccccc23)CC1
survivor count [9]: 3 of 6

O=[N+]([O-])c1c(Br)sc(Br)c1[N+](=O)[O-]
survivor count [5]: 5 of 6 | survivor count [6]: 1 of 6 | survivor count [7]: 0 of 6

C/C=C1\C(=O)O[C@@]23C=C[C@H]4C(C(=O)OC)=CO[C@@H](O[C@H]12)[C@H]43
survivor count (T/C endpoint: mean survival time, dose: 100.0 mg/kg/injection, schedule: Q01DX001 (ip), vehicle: saline): 0 of 6 | survivor count [11]: 0 of 6

C/C(Cl)=C/C(=O)O.[Ag]
survivor count (T/C endpoint: mean survival time, dose: 150.0 mg/kg/injection, schedule: Q01DX001 (ip), vehicle: saline): 0 of 6 | survivor count (T/C endpoint: mean survival time, dose: 300.0 mg/kg/injection, schedule: Q01DX001 (ip), vehicle: saline): 0 of 6
